From patent US20220152024A1, “COMBINATIONS USEFUL IN A METHOD FOR TREATING SARCOMA” (PTC THERAPEUTICS, INC., priority 2019, published 2022)
Entries after “also recorded” stand apart in the source; their conditions may differ. Where two headings read alike, the source gives them in different places. For some assays here: The name of at least one read-out is uncertain. For some assays here: For at least one compound, name, drawing or mass did not settle the structure.

Assays:
[1] = tested on: SK-LMS-1 human leiomyosarcoma tumors; type: in vivo
Text: Leiomyosarcoma accounts for 5-10% of soft tissue sarcomas. Typically, leiomyosarcomas have a complex karyotype and are associated with p53 mutations (Yang J, Du X, Chen K, Ylipaa A, Lazar A J, Trent J, Lev D, Pollock R, Hao X, Hunt K, Zhang W. Genetic aberrations in soft tissue leiomyosarcoma. Cancer Lett. 2009 Mar. 8; 275(1):1-8). The cell line, SK-LMS-1 has a complex karyotype and a mutated p53 gene. Chemotherapy with doxorubicin-based drug regimens such as a combination of doxorubicin and ifosfamide is the standard of care. However, these regimens usually result in cardiotoxicity, rapid development of resistance, and no significant survival advantage. In a previous study utilizing the SK-LMS-1 model, Compound 1 (Cpd 1) was tested at a constant dose (12.5 mg/kg biw) in combination with varying doses/regimens of doxorubicin and gemcitabine. […] Here, SK-LMS-1 cells were passaged for a more extended time in vivo relative to the prior study generating a more aggressive tumor model. This study tested the efficacy of Cpd 1 alone and in combination with the chemotherapeutic agents Doxil and DTIC in the treatment of mice bearing SK-LMS-1 human leiomyosarcoma tumors.
(§1) A negative coefficient indicates greater inhibition in the combination group than expected based on the activity of the monotherapies. The more negative the coefficient, the greater the activity of the combination.
Tumors were ˜222 mm3 in volume when dosing was initiated. […] Interaction coefficients were determined using the AUCs of the Day 0 to Day 28 tumor volume vs day curves. To take into account the data after Day 28, interaction coefficients were calculated for the median time to reach 1000 mm^3. A negative interaction coefficient indicates synergy.
as §1

[2] = tested on: SK-UT-1 leiomyosarcoma tumor cells; type: in vivo; details: Cpd 1 12.5 mg/kg BIW6 monotherapy
Procedure: as §1
This study utilized SK-UT-1 leiomyosarcoma tumor cells implanted into the flank of athymic nude mice.
To compare tumor growth, the area under the curve comparing tumor volume vs day for each individual mouse was calculated and then averaged for each group.
Interaction coefficients were determined using the AUCs of the Day 0 to Day 25 tumor volume vs day curves. To take into account the data after Day 25, interaction coefficients were also calculated for the median time to reach 1000 mm3. A negative interaction coefficient indicates synergy.

[3] = Predicted effective human dose from mouse exposure and measured human exposure (FIGS. 6A-D); type: in vivo; details: monotherapy, orally twice per week
Text: FIGS. 6A-D summarize the pharmacokinetics of Compound 1 administered as a monotherapy in humans (as measured by AUCLast and Cmax) two times per week in the AST trial, wherein the dotted line in each figure indicates free drug concentration.
In contrast to use of allometric conversion factors, FIGS. 6A-D summarize the pharmacokinetics of Compound 1 administration in humans, showing that a conversion factor for Compound 1 based on free drug in humans compared to free drug in mice can be derived to estimate the effective target AUC and Cmax, thus accounting for the differences in free drug between these species.
As shown by the dashed line, this predicts that the estimated dose in a human patient of about 2.0 mg/kg (biw) or higher of Compound 1 would be effective.
As shown by the dashed line, this predicts that the estimated dose in a human patient of about 1.4 mg/kg (biw) or higher of Compound 1 would be effective.
As shown by the dashed line, this predicts that the estimated dose in a human patient of about 2.3 mg/kg (biw) or higher of Compound 1 would be effective.
As shown by the dashed line, this predicts that the estimated dose in a human patient of about 1.8 mg/kg (biw) or higher of Compound 1 would be effective.

[4] = tested on: tubulin; assay: Mechanistic studies, microtubule polymerization; type: biochemical
[5] = tested on: LMS; details: later-line setting; cited from earlier work

Structure (SMILES): Cc1nc2ccc(F)cc2n1-c1nc(N)c(F)c(Nc2ccc(C(F)(F)F)cc2)n1 [Compound 1, 5-fluoro-2-(6-fluoro-2-methyl-1H-benzo[d]imidazol-1-yl)-N^4-[4-(trifluoromethyl)phenyl]pyrimidine-4,6-diamine]
- effect on tumor growth ([1]; Cpd 1 12.5 mg/kg biw monotherapy, 12.5 mg/kg): modestly delayed tumor growth; also recorded: only limited efficacy as monotherapy
- effect on tumor growth [2]: tumor growth was delayed; also recorded: demonstrated efficacy as monotherapy; also recorded: modestly delayed tumor growth
- minimum effective amount for a 70 kg human subject, for AUC ([3]; targeting free drug at 12.5 mg/kg in the mouse): about 162 mg
- minimum effective amount for a 70 kg human subject, for AUC ([3]; targeting total drug at 12.5 mg/kg in the mouse): about 290 mg
- mechanism [4]: inhibits microtubule polymerization

Structure (SMILES): CN(C)/N=N/c1[nH]cnc1C(N)=O [DTIC, dacarbazine, reference compound]
- effect on tumor growth ([1]; DTIC 4 mg/kg IP tiw, alone or with Cpd 1 12.5 mg/kg biw, listed as DITC): little efficacy
- effect on tumor growth ([1]; DTIC 21 mg/kg IP qd5, alone or with Cpd 1 12.5 mg/kg biw): more effective at the higher dose as a monotherapy than Cpd 1; also recorded: completely prevented tumor growth through Day 18
- response rates [5]: approximately 10%
